Reference: publication PMC12040169 (PLOS Biology, 2025)
Like-named read-outs stand apart in the source and are kept apart here. Some of the results follow.

Test system: T1, CTL2-GFP (C. trachomatis L2/434/Bu, GFP-expressing)
T1 construct: L2/434/Bu, GFP-expressing
Design: species or system HeLa; Intracellular C. trachomatis growth in HeLa cells, bulk GFP fluorescence relative to DMSO
Settings: bulk GFP, single well, 28.5 h, 10 µM, inhibitor

Structure (SMILES)	% of control remaining	% of control remaining (Bulk GFP fluorescence)
COc1ccc(OC)c(NC(=O)CSc2nnc(-c3cccnc3)s2)c1 [CBK269043]	115.524%	–
O=C(c1cc(CC2(NCc3ccc(F)cc3)COC2)no1)N1CCCCC1 [CBK289657]	159.403%	–
O=S(=O)(NCC(c1ccccc1)N1CCNCC1)c1ccccc1 (centres unmarked) [CBK262813]	114.316%	–
CC(C)Cn1cncc1CNC(=O)Nc1ccc2[nH]nnc2c1 [CBK306549]	77.5333%	–
Nc1ncnc2c1nc(Br)n2[C@H]1C[C@@H](O)[C@@H](CO)O1 [CBK201240]	118.192%	–
COc1ccc2c(c1)CCN(C(=O)C1CCc3nn(C)c(=O)n3C1)C2 (centres unmarked) [CBK307613]	151.244%	–
O=c1cc(N2CCOCC2)oc2cccc(O)c12 [CBK016536]	100%	–
Cc1cc(C)n(CCCC(=O)NCCc2cn3ccccc3n2)n1 [CBK304414]	137.588%	–
O=C(NCCOc1ccccc1)N1CCN(c2ccc(F)cc2)CC1 [CBK156416]	109.136%	–
Cc1nc(C2CC(O)C2)cc(N2CCC(C(=O)N3CCOCC3)CC2)n1 (centres unmarked) [CBK307675]	163.159%	–
COc1ccc(-c2ccc(CCC(=O)O)n2Cc2ccco2)cc1 [CBK265945]	100%	–
Cc1nnc2sc(-c3ccncc3)nn12 [CBK269553]	144.948%	–
CC1(C)C[C@H](NC(=O)C2CC2)[C@@]2(CCC(=O)N3CCCC3)CC[C@](C)(O)C[C@@H]12 [CBK289044]	118.989%	–
Cn1cc(C2CCCCCN2C(=O)c2ccc(F)cc2)cn1 (centres unmarked) [CBK284913]	154.021%	–
O=C(Nc1cccnc1)c1ncoc1-c1ccc(F)cc1 [CBK104357]	152.36%	–
CCN(CC)CCNC(=O)N(CC)Cc1ccncc1 [CBK155151]	97.5874%	–
CCC(CNC(=O)c1coc(COc2ccc3sc(C)nc3c2)n1)OC (centres unmarked) [CBK307248]	139.687%	–
Nc1ncc(-c2cccc3ccccc23)nc1NC1CCCCC1 [CBK063588]	127.347%	–
CC1=CC(C)C(C(=O)O)C(C(=O)N2CCN(C)CC2)C1 (centres unmarked) [CBK027311]	–	97.1773%
COc1cc(C)ccc1S(=O)(=O)n1cnc2cc(C)c(C)cc21 [CBK287580]	139.023%	–
O=C(NCCc1noc(CO)n1)N(Cc1ccsc1)C1CCCCC1 [CBK307273]	103.177%	–
O=C(Nc1cccc(-c2nc3ncccc3o2)c1)c1ccc(OCc2ccccc2)cc1 [CBK263139]	112.493%	–
O=C(Cc1c[nH]c2ccccc12)N1CCC2(CCN(C(=O)CC3CCCCC3)C2)C1 (centres unmarked) [CBK131422]	107.486%	–

Taken from above for reference:
Structure (SMILES)	% of control remaining	% of control remaining (Bulk GFP fluorescence)
Cc1nc(C2CC(O)C2)cc(N2CCC(C(=O)N3CCOCC3)CC2)n1 (centres unmarked) [CBK307675]	163.159%	–
COc1ccc(-c2ccc(CCC(=O)O)n2Cc2ccco2)cc1 [CBK265945]	100%	–
